Results are given in words; binding and its absence hold for the method and conditions named. Some binding calls cover weakened binding; strength is not graded here.
How the values were obtained:
[1] = target: human HGF (R&D material and Peprotech material, values averaged over both) (human) (UniProt P14210); assay: SPR (Biacore T100), summary table; Kd cell holds a word for the binding behaviour, no Kd fitted
[2] = target: T1, human HGF (R&D Systems, 294-HG/CF) (human, UniProt P14210 32-728); assay: AlphaScreen screen, periplasmic extract at a single dilution; inhibition of biotinylated human HGF binding to c-Met-Fc
T1 construct: The entry begins at QRKRR, without signal peptide; Amine-coupled to the chip in SPR and biotinylated in AlphaScreen; also called rec hHGF (R&D systems)

The chains behind the UniProt entries cited, without tags or fusion partners. Where a name states a change or a piece, a line headed by the entry shows the natural chain unless it says otherwise.
UniProt P14210: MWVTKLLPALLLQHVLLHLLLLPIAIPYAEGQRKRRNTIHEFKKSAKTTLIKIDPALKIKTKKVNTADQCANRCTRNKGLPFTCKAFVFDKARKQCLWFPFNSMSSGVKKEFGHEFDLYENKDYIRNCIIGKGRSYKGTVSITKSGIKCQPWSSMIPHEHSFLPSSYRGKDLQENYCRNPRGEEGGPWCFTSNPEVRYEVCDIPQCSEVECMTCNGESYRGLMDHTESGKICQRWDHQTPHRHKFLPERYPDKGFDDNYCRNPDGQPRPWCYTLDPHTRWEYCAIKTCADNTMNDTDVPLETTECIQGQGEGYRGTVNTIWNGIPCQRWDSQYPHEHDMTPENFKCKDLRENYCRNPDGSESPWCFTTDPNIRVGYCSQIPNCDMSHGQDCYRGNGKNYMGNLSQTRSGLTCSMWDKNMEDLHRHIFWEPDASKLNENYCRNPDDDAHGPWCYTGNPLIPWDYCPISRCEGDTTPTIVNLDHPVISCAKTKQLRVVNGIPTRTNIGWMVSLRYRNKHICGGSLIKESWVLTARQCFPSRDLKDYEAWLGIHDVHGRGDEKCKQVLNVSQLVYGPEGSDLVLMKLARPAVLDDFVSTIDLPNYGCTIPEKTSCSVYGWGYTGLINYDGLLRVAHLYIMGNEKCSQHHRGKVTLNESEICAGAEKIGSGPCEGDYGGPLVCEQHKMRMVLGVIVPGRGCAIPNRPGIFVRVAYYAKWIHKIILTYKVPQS

[3] = target: T1, human HGF (R&D Systems, 294-HG/CF); assay: AlphaScreen competition, serial dilution of purified Nanobody; inhibition of biotinylated human HGF binding to c-Met-Fc
Description: In brief, 5 μl of 1/5 prediluted periplasmic extract of individual Nanobody clones were incubated with 3 nM biotinylated HGF, 2 nM c-Met-Fc, streptavidin coated donor beads and anti-human IgG1 Fc Nanobody covalently coupled AlphaScreen acceptor beads. Monoclonal antibody clone 24612 (R&D systems) known to inhibit the HGF/c-Met-Fc interaction, was used as a positive control. Assays were read in an Envision AlphaScreen™ option fitted multimode reader (Perkin Elmer). Individual clones were scored as putative HGF/c-Met-Fc interaction inhibiting if the presence of the periplasmic extract decreased the fluorescent signal of the acceptor beads. Both inhibitory and non-inhibitory clones were identified. A 10-fold reduction in signal with respect to the negative control (irrelevant periplasmic extract and buffer) was used to select the HGF/c-Met inhibiting Nanobodies. As a positive control, anti-HGF monoclonal antibody (R&D systems, clone 24612) was included. FIG. 2 depicts an example of screen of periplasmic extracts using AlphaScreen.
Serial dilutions of purified Nanobodies were then analyzed for their ability to block the interaction of human HGF with c-Met-Fc using the same AlphaScreen™ assay as described above (1.4). […]

Measured: binding

B1: 9G6 (VHH)
VHH: EVQLVESGGGLVQAGGSLRLSCAASGRTLSDYTMGWFRQAPGKEREFVARINTGGPITSYSDSVKGRFTISRDNAKNTVYLQMNSLKPEDTAVYNCAARLPTKMSPRDYSSYAYRGQGTQVTVSS
notes: anti-HGF Nanobody clone; not shown: c-myc and His6 tags
binds: all assays above

— patent publication US20150010546A1 (Ablynx, published 2015)
